“And” between values parts separate entries of the source, which are not always exact repeats. Equal entries are not always repeated. Among all 340,000 compounds or so, about 170 (0.05%) were called active. This list was built around the results that the source calls inconclusive (neither active nor inactive); the mix of calls is not that of the screen. Calls come from the whole dose curve; as a rule, active = well fitted inhibition curve with a large enough effect in the signal ratio, with a control signal flat (not every such curve was filed as active); inconclusive = small, poorly fitted or top-dose-only effect, or effect the other way, or a change in a side signal; inactive = flat fitted curve, though single readings scatter; the % refers to the signal ratio. A potency beside an inconclusive call is a rough fit, not a confirmed value.
assay: qHTS Assay to Find Inhibitors of Chronic Active B-Cell Receptor Signaling; details: ABC-DLBCL IkBa-CBG/CBR reporter, luminescence ratio (green luciferase fused to IkBa over red control in TMD8 lymphoma cells), 4 h; activity change, negative = inhibition: at 46.1 µM (top of the series) unless noted;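 for activity change, negative = inhibition: plate controls were basal doxycycline-induced cells for no effect and cells given 10 µM MG132 for full effect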
In short: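 TMD8 ABC-DLBCL cells carrying doxycycline-inducible green luciferase fused to IkappaBalpha plus unfused red luciferase were exposed to compounds (up to 46 uM) for 4 hrs at 37C. Activity came from the overlap-corrected green/red luminescence ratio.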
Potency is the fitted concentration of half-maximal effect.

Compound | activity change, negative = inhibition | Potency
Cc1nc(CNS(=O)(=O)c2ccc(Br)cc2)cs1 | inconclusive: 0.394% | –
O=C(Nc1ccccc1C(F)(F)F)c1cc2ncc(CCCl)cn2n1 | inconclusive: 1.06% | –
O=C(Nc1ccc(Cl)cc1)Nc1nnc(CSc2ccc(Cl)cc2)s1 | inconclusive: 14.6% | –
Cc1cc(=O)oc2cc(OCC3CC(c4ccc(Cl)cc4)=NO3)ccc12 (centres undefined) | inconclusive: 1.82% | –
Cc1nc2cc(-c3cccc(F)c3)nn2c(N2CCN(C(=O)c3ccco3)CC2)c1C | – | inconclusive: 18.4 µM [rising, single point]
CC1=C(C(N)=O)C(c2ccccn2)n2nc(SCc3ccccc3)nc2N1 (centres undefined) | inconclusive: 8.25% | –
CCOc1c(OC)cccc1C1CC(=O)Nc2cc(OC)c(OC)cc21 (centres undefined) | inconclusive: -26.2% | –
Cc1cc(C)nc(NC(=O)/C=C/c2ccc(Cl)cc2Cl)c1 | inactive: 1.71% | –
COc1ccc2nc(SCC(=O)NC(C)c3ccccc3)[nH]c2c1 (centres undefined) | inconclusive: 3.95% | –
S=C(NCCSCc1c(Cl)cccc1Cl)Nc1ccccc1 | inconclusive: 10% | –
CCn1nc(C(=O)N2CCN(Cc3nc4ccccc4s3)CC2)c2ccccc2c1=O | inconclusive: 16.2% | –
CCCCCCc1nc(C(N)=O)c2[nH]c(=O)n(-c3ccc(OC)cc3OC)c2n1 | – | inconclusive: 31.6 µM [falling, single point]
CN(c1ccccc1)S(=O)(=O)c1cccc(NS(=O)(=O)c2cccc(C(=O)O)c2)c1 | inconclusive: 3.76% | –
CCN(CC)CCN(C(=O)c1ccc2ccccc2c1)c1nc2cc3c(cc2s1)OCO3 | inactive: -9.05% | –
CCOC(=O)c1c(NC(=O)c2cc(C)oc2C)sc(C(=O)Nc2ccc(Cl)cc2)c1C | inconclusive: -17.9% | –
COc1ccccc1COn1c(=O)c(-c2ccco2)[n+]([O-])c2ccccc21 | inactive: 8.48% | –
CC(C)NS(=O)(=O)c1ccc(Oc2ncc(C(F)(F)F)cc2Cl)cc1 | inconclusive: 2.11% | –
Cc1ccc(C(C)C)c(OCc2nn(CC(=O)c3ccc(Cl)cc3)c3[n+]2CCCCC3)c1 | inconclusive: -0.116% | –
C/C=C/C=C/C(=O)Nc1nccs1 | inconclusive: 5.35% | –
COc1ccc(C(=O)O)cc1S(=O)(=O)Nc1ccc(Oc2ccccc2)cc1 | – | inconclusive: 20.6 µM [falling, single point]
COCCn1c(C)cc(C2=NNC(=NC(C)(C)C)SC2)c1C | inactive: -0.853% | –
COCCNC(=S)N/N=C/c1ccc(N2CCOCC2)cc1 | – | inconclusive: 29.1 µM [cytotoxic, single point]
CN1CCN(NC(=S)Nc2ccc(OC(F)F)cc2)CC1 | – | inconclusive: 35.5 µM [falling, single point]
CC(=O)c1ccc(C(=O)N(CCN(C)C)c2nc3c(Cl)cccc3s2)cc1 | – | inconclusive: 35.5 µM [falling, single point]
Cc1ccc(C2c3c(oc4ccccc4c3=O)C(=O)N2c2nnc(C(C)C)s2)o1 (centres undefined) | inconclusive: -0.443% | –

Shown with tabs: 13 of the compounds above.
Compound	activity change, negative = inhibition	Potency
Cc1nc2cc(-c3cccc(F)c3)nn2c(N2CCN(C(=O)c3ccco3)CC2)c1C	–	inconclusive: 18.4 µM [rising, single point]
CC1=C(C(N)=O)C(c2ccccn2)n2nc(SCc3ccccc3)nc2N1 (centres undefined)	inconclusive: 8.25%	–
CCOc1c(OC)cccc1C1CC(=O)Nc2cc(OC)c(OC)cc21 (centres undefined)	inconclusive: -26.2%	–
Cc1cc(C)nc(NC(=O)/C=C/c2ccc(Cl)cc2Cl)c1	inactive: 1.71%	–
COc1ccc2nc(SCC(=O)NC(C)c3ccccc3)[nH]c2c1 (centres undefined)	inconclusive: 3.95%	–
S=C(NCCSCc1c(Cl)cccc1Cl)Nc1ccccc1	inconclusive: 10%	–
CCn1nc(C(=O)N2CCN(Cc3nc4ccccc4s3)CC2)c2ccccc2c1=O	inconclusive: 16.2%	–
CCCCCCc1nc(C(N)=O)c2[nH]c(=O)n(-c3ccc(OC)cc3OC)c2n1	–	inconclusive: 31.6 µM [falling, single point]
CN(c1ccccc1)S(=O)(=O)c1cccc(NS(=O)(=O)c2cccc(C(=O)O)c2)c1	inconclusive: 3.76%	–
CCN(CC)CCN(C(=O)c1ccc2ccccc2c1)c1nc2cc3c(cc2s1)OCO3	inactive: -9.05%	–
CCOC(=O)c1c(NC(=O)c2cc(C)oc2C)sc(C(=O)Nc2ccc(Cl)cc2)c1C	inconclusive: -17.9%	–
COc1ccccc1COn1c(=O)c(-c2ccco2)[n+]([O-])c2ccccc21	inactive: 8.48%	–
CC(C)NS(=O)(=O)c1ccc(Oc2ncc(C(F)(F)F)cc2Cl)cc1	inconclusive: 2.11%	–

Following part.

Compound | activity change, negative = inhibition | Potency
CC1(C)CC(=O)c2sc(NC(=O)CCS(=O)(=O)c3ccccc3)nc2C1 | – | inconclusive: 16.4 µM [falling, partial curve, poor fit]
O=C(Nc1ccnn1C1CCN(Cc2cccc(O)c2)CC1)C1CCCC1 | inconclusive: 15.6% | –
O=C(CN(Cc1ccco1)C(=O)Cn1nnc(-c2ccc(F)cc2)n1)NC1CCCC1 | inactive: -4.86% | –
O=C(Nc1cc(C(F)(F)F)ccc1F)C1CCCCC1 | inconclusive: 17.6% | –
COc1cc(COCC(O)CN2CCc3ccccc3C2)cc(OC)c1OC (centres undefined) | inactive: -1.97% | –
CC(C)N(Cc1cc2ccccc2[nH]c1=O)C(=O)C1CCCCC1 | inconclusive: 0.381% | –
Cc1ccc(CONC(=O)c2ccccc2Cl)cc1 | – | inconclusive: 23.1 µM [falling, partial curve]
CCc1nonc1NC(=O)c1oc2ccc(Cl)cc2c1C | inconclusive: -0.924% | –
CC[C@H](C)C(=O)O[C@H]1CCC=C2C=C[C@H](C)[C@H](CC[C@@H]3C[C@@H](O)CC(=O)O3)[C@H]21 | inconclusive: 4.71% and inconclusive: 8.93% | –
CC[C@]12c3[nH]c4cc(CCC(=O)N(C)C)ccc4c3CCN1C(=O)[C@@H](CC(=O)NCc1ccco1)C[C@@H]2C(=O)N1CCN(C(=O)c2ccco2)CC1 | inconclusive: -8.63% | –
COC(=O)C1CCN(S(=O)(=O)CCNC(=O)c2cccc(OC)c2)CC1 | – | inconclusive: 29.1 µM [falling, single point]
Cc1cccc(NC(=O)NNC(=O)c2cc(-c3ccccc3Cl)nc3ccccc23)c1 | inconclusive: -1.26% | –
O=[N+]([O-])c1ccccc1C1Nc2cccc3cccc(c23)N1 | – | inconclusive: 1.3 µM [falling, partial curve]
c1ccc(-n2c(-c3cccs3)nc3nc4ccccc4nc32)cc1 | inconclusive: 16% | –
O=C(CSCC(=O)OCn1nnc2ccccc2c1=O)Nc1ccc(Cl)cc1 | – | inconclusive: 8.91 µM [falling, partial curve, poor fit]
O=C(Nc1cccc(-c2cccc(Cl)c2)c1)C1CCN(C2CCC2)CC1 | inconclusive: -27.7% | –
COc1ccc(OC)c(NC(=O)C2CCN(c3ncccn3)CC2)c1 | inconclusive: 6.05% | –
CC(C)(C)c1ccc(NC(=S)NCc2cccnc2)cc1 | inactive: -10.5% | –
COC(=O)c1cc(C(=O)Nc2nnc(CC(C)C)s2)cc([N+](=O)[O-])c1 | inconclusive: 1.44% | –
CCCN1CCC(=NNc2ccc(S(=O)(=O)N3CCOCC3)cc2[N+](=O)[O-])CC1 | – | inconclusive: 2.31 µM [falling, full curve]
O=[N+]([O-])c1ccc(N2CCCCC2)cc1NCCOc1ccccc1 | inactive: 2.6% | –
COc1cc(OC)c(N(C)S(=O)(=O)c2cccc(C(=O)OCc3c(C)noc3C)c2)cc1Cl | inactive: -6.03% | –
CC(C)N1C(=S)SC(C)(C)C1n1oc(=O)n(-c2cccc(Cl)c2)c1=O (centres undefined) | – | inconclusive: 35.5 µM [falling, single point]
CCCCCCN=C1CC(C)(C)CC(=O)/C1=C(/O)CCC | inconclusive: -4.48% | –
